Measurements reported in patent US20220162331A1 (CHENGDU CONMED BIOSCIENCES, published 2022).
Results are given in words; binding and its absence hold for the method and conditions named. Some results given as binding are weak or reduced against the parent protein; the word gives no strength.

Legend:
[1] = molecular target: T1, human full-length CD73 on hCD73-CHO-1C11 cells (human) (UniProt P21589); assay: flow cytometry on hCD73-CHO-1C11 cells, anti-mouse IgG-Fc-AF647 secondary
T1 sequence: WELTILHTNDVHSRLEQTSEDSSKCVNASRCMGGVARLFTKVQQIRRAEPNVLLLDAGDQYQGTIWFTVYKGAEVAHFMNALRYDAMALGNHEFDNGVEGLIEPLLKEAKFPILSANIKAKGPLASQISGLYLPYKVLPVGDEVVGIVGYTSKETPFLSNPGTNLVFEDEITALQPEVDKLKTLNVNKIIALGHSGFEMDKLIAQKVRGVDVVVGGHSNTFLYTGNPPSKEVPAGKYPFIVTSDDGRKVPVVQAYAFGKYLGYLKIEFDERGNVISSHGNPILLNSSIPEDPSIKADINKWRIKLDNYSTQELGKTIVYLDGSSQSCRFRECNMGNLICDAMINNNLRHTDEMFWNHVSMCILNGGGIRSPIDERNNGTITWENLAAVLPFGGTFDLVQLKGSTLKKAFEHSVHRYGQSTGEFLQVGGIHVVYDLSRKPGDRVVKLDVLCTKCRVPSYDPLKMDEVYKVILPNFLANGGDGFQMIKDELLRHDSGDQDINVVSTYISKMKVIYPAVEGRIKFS

[2] = molecular target: T2, human CD73 on Calu6 cells (human, UniProt P21589 27-549); assay: flow cytometry on Calu6 cells, anti-mouse IgG-Fc-AF647 secondary
T2 sequence (looked up): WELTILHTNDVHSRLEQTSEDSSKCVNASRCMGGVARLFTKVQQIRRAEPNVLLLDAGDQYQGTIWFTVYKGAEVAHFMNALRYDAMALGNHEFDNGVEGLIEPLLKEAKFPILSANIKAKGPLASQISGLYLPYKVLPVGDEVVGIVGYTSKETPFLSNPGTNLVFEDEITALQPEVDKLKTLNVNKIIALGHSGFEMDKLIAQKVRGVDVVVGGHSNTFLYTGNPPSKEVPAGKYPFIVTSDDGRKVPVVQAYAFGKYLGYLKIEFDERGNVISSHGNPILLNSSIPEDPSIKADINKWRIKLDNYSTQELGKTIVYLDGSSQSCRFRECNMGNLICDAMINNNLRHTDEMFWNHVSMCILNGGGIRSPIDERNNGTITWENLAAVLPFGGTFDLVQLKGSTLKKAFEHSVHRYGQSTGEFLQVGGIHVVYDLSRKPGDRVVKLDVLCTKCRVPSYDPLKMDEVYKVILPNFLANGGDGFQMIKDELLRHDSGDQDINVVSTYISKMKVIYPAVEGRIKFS

B1: CD73 antibody 14H10 (antibody, V domains shown)
VH: QIQLQQSGAELARPGASVNLSCKASGYSFTSYWMQWLKQRPGQGLEWIGAIYPGDGDTRYTQKFKGKATLTADKSSSTAYMQLSSLASEDSAVYYCALFSYWGQGTLVTVSA
VL: DIQMTQSPSSLSASLGERVSLTCRASQDIGSSLNWLQQEPDGTFKRLIYATSTLDSGVPKRFSGSRSGSDYSLTISSLESEDFVDYYCLQYASFPYTFGGGTKLEIK
notes: Mouse variable regions on human IgG heavy chain constant region and human kappa constant region (chimeric IgG)
binding [1]: binds | binding [2]: binds
